Reference: US12370193B2, “Method of inhibiting TREM-1” (UNIVERSITY OF FLORIDA RESEARCH FOUNDATION, INCORPORATED, priority 2019, dated 2025)
At least one structure is not confirmed: it was looked up by name or label, or the drawing left a doubt.

System: OP9 cells
Assay: Adipogenesis and gene expression in MDI-differentiated OP9 cells
Assay type: cell-based
Conditions: OP9 adipogenesis
Source text: FIGS. 1A to 1E: Pan modulator with poly-pharmacology. […] FIG. 1D is a graph showing PPARγ target genes (aP2 and CD36) expression in OP9 cells with and without MDI (IBMX, dexamethasone, insulin) treatment. […] SR1903 is represented as orange sticks while PPARγ, RORγ, and LXRβ are depicted as blue ribbons respectively. Specific residues driving the interaction labelled and shown as sticks as well. […] FIG. 1F are graphs showing RORγ target genes (IL17A and IL17F) expression in EL4 cells.
FIG. 5A-5C: PPARγ and RORγ expression during adipogenesis of OP9 cells.
Cell lines: HEK293T cells and EL4 cells (American Type Culture Collection) were maintained in DMEM and RAW264.7 cells (American Type Culture Collection) were maintained in RPMI-1640 with 10% heat inactivated FBS and antibiotics (penicillin, streptomycin; Invitrogen). OP9 cells (American Type Culture collection) were maintained in Alpha minimum essential medium (MEM-alpha) with 20% heat inactivated FBS. […]
Quantitative RT-PCR: Total RNA was extracted from EL4 or RAW264.7 cells using RNeasy Plus Micro Kit (Qiagen) and the RNA was reverse transcribed using the ABI reverse transcription kit (Applied Biosystems/Thermo Fisher Scientific, Waltham MA). Quantitative PCR was performed with a 7900HT Fast Real Time PCR System (Applied Biosystems) using SYBR green (Roche).

With CN(CCOc1ccc(CC2SC(=O)NC2=O)cc1)c1ccccn1 (centres unmarked) [rosiglitazone, reference compound] the “expression of PPARγ” value was “did not alter” and the “expression of RORγ” value was “robustly upregulate”.
